Assay results reported in the supplement of paper PMC11006884.
Shown are results outside the selection of targets with a hit, which stands elsewhere. The data scatter; read single values as rough. This is a selection; strong and weak results do not stand in their true shares.

The chains behind the UniProt entries cited, without tags or fusion partners. Where a name states a change or a piece, a line headed by the entry shows the natural chain unless it says otherwise.
UniProt Q14697: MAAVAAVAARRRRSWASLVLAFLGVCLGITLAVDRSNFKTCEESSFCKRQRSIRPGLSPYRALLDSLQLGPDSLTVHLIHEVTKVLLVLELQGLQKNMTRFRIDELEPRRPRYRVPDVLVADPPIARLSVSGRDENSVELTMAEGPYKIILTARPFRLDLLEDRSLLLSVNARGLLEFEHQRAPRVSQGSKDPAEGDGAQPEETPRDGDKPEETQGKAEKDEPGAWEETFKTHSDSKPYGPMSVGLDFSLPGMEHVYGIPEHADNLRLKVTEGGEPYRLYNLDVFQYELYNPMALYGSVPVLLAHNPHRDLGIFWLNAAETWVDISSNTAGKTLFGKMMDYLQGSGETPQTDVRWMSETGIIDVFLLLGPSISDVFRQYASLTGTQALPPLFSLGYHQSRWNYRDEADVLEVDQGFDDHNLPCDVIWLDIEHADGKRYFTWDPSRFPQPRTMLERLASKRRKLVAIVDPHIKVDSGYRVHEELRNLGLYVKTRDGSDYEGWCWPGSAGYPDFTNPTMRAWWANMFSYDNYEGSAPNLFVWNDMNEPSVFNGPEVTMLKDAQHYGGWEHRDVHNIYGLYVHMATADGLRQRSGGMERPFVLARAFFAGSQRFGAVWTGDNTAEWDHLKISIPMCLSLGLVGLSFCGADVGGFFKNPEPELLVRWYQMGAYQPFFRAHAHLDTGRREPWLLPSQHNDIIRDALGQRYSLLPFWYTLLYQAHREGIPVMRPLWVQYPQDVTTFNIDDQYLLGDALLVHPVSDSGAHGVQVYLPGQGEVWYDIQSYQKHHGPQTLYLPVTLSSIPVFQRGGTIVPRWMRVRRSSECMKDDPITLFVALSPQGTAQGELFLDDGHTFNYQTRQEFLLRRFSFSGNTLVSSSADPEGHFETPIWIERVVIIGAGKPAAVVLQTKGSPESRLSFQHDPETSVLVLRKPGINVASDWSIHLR
UniProt Q14204, whole entry, looked up: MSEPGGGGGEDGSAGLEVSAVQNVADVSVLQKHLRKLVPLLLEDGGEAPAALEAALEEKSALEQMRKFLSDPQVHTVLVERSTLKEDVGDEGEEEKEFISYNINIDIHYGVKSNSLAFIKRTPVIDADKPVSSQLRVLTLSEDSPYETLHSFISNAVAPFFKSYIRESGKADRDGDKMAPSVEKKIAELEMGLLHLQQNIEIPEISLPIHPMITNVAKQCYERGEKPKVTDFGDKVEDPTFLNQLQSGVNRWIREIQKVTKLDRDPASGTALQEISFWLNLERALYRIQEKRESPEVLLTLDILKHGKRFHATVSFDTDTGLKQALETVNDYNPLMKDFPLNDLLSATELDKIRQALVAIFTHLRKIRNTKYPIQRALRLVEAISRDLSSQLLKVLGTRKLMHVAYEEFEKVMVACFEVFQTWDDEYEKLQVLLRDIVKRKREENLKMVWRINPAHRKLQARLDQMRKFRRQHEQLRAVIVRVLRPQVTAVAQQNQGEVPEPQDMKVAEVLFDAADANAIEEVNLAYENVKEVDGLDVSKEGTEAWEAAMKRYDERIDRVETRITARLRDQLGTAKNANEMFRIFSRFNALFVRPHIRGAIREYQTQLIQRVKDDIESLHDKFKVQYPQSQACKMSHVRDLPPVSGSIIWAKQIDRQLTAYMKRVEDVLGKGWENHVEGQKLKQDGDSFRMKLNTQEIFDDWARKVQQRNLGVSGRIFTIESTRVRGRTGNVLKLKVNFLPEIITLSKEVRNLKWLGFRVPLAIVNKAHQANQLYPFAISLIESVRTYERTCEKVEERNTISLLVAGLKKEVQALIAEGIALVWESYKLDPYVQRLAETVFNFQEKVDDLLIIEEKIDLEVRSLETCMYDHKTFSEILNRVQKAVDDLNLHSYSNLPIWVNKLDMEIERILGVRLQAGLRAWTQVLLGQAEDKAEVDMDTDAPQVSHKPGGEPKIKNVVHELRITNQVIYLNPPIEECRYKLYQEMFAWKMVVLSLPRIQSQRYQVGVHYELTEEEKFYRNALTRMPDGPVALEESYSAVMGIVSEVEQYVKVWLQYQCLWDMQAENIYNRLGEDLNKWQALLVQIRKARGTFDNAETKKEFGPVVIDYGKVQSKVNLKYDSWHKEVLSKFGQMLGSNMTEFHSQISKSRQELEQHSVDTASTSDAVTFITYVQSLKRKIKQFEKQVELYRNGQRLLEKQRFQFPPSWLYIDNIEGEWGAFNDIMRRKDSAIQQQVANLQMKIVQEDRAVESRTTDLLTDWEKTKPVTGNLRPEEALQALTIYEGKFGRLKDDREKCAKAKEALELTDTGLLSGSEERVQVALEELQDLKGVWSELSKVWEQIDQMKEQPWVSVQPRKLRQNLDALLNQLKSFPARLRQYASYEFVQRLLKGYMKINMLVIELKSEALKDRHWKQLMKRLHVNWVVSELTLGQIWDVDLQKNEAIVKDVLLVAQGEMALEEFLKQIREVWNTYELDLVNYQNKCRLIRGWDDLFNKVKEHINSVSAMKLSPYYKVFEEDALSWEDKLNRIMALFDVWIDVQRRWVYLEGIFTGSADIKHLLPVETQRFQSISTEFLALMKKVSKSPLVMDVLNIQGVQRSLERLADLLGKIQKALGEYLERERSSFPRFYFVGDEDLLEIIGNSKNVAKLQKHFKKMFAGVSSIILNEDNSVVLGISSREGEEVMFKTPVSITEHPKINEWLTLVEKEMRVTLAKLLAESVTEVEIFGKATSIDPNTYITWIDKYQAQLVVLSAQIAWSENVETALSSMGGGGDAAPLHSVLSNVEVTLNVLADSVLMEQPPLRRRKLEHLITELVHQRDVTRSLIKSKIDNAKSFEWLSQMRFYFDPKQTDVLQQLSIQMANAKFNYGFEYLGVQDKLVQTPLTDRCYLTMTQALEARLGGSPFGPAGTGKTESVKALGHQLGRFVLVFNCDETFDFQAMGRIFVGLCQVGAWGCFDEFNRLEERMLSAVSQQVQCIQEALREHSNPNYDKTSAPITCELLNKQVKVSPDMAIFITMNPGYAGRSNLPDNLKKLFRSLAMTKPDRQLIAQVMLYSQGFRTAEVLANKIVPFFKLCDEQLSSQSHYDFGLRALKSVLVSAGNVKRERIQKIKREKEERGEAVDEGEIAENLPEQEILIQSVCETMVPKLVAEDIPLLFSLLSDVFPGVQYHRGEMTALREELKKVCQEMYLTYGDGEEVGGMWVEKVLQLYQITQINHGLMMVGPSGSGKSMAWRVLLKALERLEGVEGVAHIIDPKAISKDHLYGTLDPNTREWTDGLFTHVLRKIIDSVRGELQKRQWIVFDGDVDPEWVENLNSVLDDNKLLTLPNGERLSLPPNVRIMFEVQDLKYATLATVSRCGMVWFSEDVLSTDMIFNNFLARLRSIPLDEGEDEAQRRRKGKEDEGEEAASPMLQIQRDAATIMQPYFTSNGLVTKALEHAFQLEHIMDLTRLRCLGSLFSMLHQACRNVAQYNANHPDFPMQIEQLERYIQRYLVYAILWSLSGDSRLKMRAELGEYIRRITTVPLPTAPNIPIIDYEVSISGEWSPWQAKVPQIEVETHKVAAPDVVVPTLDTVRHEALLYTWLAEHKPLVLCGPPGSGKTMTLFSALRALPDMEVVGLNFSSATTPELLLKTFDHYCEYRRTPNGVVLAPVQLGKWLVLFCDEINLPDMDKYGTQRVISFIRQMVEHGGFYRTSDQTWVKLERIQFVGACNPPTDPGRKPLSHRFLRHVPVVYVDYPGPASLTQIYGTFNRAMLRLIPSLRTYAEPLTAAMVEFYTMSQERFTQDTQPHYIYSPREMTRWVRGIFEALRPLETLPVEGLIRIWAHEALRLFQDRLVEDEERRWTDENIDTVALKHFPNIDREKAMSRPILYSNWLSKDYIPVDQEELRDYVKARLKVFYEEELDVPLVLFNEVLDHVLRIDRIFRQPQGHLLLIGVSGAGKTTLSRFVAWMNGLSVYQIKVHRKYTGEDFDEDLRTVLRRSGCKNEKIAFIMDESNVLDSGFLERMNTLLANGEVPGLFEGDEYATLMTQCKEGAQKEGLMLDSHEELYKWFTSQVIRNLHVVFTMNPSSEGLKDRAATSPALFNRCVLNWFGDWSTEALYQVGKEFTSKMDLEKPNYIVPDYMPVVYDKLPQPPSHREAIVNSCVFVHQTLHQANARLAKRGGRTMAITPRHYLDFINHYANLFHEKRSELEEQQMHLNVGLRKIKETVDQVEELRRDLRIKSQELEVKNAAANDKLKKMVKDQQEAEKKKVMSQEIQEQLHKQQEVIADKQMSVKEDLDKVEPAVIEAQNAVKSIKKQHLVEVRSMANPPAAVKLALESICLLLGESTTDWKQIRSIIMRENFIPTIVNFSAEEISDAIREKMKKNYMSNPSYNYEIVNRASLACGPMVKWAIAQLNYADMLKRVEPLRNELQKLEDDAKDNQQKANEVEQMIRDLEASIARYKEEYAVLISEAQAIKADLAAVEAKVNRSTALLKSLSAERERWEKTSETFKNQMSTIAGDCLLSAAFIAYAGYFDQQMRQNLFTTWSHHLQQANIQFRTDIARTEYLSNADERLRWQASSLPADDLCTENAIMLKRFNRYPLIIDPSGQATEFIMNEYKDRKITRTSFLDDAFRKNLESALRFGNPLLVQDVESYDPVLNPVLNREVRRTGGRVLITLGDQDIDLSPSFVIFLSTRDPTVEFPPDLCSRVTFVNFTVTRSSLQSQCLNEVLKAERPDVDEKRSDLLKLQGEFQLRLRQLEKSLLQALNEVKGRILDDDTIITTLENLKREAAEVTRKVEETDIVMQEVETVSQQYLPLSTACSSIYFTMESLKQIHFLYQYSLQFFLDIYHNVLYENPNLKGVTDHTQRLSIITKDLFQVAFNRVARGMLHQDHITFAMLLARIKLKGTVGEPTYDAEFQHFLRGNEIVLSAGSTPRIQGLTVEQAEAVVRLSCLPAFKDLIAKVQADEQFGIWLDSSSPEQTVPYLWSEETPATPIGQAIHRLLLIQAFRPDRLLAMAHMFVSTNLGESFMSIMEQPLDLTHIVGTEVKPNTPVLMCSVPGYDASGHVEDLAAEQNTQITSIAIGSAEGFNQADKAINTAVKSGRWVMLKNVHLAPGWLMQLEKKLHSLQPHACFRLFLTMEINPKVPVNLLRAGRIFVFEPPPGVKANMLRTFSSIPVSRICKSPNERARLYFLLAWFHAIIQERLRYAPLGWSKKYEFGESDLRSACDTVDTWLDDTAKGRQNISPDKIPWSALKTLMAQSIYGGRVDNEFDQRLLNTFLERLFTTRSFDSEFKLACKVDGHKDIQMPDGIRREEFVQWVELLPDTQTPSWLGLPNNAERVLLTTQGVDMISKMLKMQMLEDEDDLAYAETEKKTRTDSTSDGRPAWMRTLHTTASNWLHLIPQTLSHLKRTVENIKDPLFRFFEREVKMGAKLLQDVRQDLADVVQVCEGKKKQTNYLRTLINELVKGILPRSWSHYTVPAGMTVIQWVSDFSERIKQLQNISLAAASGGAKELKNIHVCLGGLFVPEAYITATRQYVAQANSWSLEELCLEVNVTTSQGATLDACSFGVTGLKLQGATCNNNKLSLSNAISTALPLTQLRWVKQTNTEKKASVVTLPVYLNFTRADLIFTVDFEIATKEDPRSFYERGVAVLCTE
UniProt Q14694, whole entry, looked up: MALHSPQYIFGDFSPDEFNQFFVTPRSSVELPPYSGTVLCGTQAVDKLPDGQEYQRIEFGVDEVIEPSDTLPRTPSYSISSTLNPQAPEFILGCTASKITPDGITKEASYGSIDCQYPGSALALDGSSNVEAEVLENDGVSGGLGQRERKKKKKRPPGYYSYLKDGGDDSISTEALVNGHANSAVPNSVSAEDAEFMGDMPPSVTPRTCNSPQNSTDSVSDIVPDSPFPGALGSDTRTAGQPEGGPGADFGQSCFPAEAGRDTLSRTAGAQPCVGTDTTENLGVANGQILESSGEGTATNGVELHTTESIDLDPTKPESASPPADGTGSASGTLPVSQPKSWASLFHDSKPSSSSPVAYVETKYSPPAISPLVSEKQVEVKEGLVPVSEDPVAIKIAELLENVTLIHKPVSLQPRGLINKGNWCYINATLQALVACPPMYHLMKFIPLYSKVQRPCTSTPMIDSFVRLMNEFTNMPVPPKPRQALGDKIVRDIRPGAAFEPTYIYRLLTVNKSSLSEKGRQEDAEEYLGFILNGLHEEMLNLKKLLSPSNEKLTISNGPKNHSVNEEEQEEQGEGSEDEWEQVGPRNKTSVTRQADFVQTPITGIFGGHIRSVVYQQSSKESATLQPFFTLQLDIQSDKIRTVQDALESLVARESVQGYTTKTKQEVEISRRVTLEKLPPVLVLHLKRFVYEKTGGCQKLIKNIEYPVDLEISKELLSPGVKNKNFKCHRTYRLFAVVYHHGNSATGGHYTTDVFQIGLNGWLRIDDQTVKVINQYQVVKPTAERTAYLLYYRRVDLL
UniProt Q14657: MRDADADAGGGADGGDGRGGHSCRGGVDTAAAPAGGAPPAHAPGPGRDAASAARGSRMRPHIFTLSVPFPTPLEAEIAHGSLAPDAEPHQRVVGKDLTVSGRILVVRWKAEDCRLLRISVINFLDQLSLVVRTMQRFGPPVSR

Compound: COC(=O)/C=C/c1ccccc1 [methyl cinnamate]
Test: log2 ratio of iodoacetamide-alkyne labeling of the cysteine site, DMSO over compound (competition); higher = stronger covalent engagement of the cysteine by the compound, active = 1 or more
Settings: 500 µM; treatment time 1 h; system: HEK293T cell lysate
Outline: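 After 1 h at ambient temperature with vehicle or electrophile (500 µM), HEK293T lysate (2 mg/mL) was labelled for 1 h with iodoacetamide alkyne and clicked to sCIP-TMT reagents. Pooled samples were trypsin-digested overnight at 37 °C, streptavidin-enriched, acid-eluted and analysed by Orbitrap Eclipse LC-MS/MS with FAIMS, then quantified in FragPipe over three replicates with duplicate channels. A cysteine's log2 competition ratio is its mean control-channel over mean compound-channel reporter intensity. Cysteines quantified in only one replicate were not included.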

| Target | log2 ratio of iodoacetamide-alkyne labeling |
| --- | --- |
| GANAB C423 (UniProt Q14697) | inactive: 0.0177 |
| SMC1A C987 (UniProt Q14683) | inactive: 0.224 |
| UniProt Q13620_C102 | inactive: 0.0992 |
| NUMA1 C2009 (UniProt Q14980) | inactive: 0.483 |
| SNW1 C250 (UniProt Q13573) | inactive: 0.123 |
| ITPR1 C530 (UniProt Q14643) | inactive: 0.129 |
| GNL2 C362 (UniProt Q13823) | inactive: -0.182 |
| UniProt Q13885_C354 | inactive: 0.235 |
| ATR C1343 (UniProt Q13535) | inactive: 0.534 |
| CAMK2G C273 (UniProt Q13555) | inactive: 0.179 |
| EIF3A C78 (UniProt Q14152) | inactive: 0.153 |
| DYNC1H1 C3033 (UniProt Q14204) | inactive: 0.104 |
| GAMT C220 (UniProt Q14353) | inactive: 0.181 |
| SQSTM1 C128 (UniProt Q13501) | inactive: 0.0308 |
| USP10 C209 (UniProt Q14694) | inactive: -0.543 |
| NCAPD2 C772 (UniProt Q15021) | inactive: 0.0133 |
| HLTF C360 (UniProt Q14527) | inactive: -0.178 |
| TRIP12 C332 (UniProt Q14669) | inactive: 0.418 |
| FHL1 C212 (UniProt Q13642) | inactive: -0.0748 |

2 entries from above, with tabs.
Target	log2 ratio of iodoacetamide-alkyne labeling
GANAB C423 (UniProt Q14697)	inactive: 0.0177
SQSTM1 C128 (UniProt Q13501)	inactive: 0.0308

Carrying on:

| Target | log2 ratio of iodoacetamide-alkyne labeling |
| --- | --- |
| HNRNPD C226 (UniProt Q14103) | inactive: -0.252 |
| BOP1 C404 (UniProt Q14137) | inactive: 0.072 |
| SMC1A C1073 (UniProt Q14683) | inactive: -0.00409 |
| LAGE3 C23 (UniProt Q14657) | inactive: 0.0381 |
| WTAP C270 (UniProt Q15007) | inactive: 0.61 |
| DYNC1H1 C2712 (UniProt Q14204) | inactive: -0.14 |
| UniProt Q14004_C1017 | inactive: 0.242 |
| DYNC1H1 C4121 (UniProt Q14204) | inactive: 0.0885 |
| RASA3 C58 (UniProt Q14644) | inactive: 0.0282 |
| GANAB C822 (UniProt Q14697) | inactive: -0.00764 |
| MORF4L2 C165 (UniProt Q15014) | inactive: 0.217 |
| CKAP5 C1026 (UniProt Q14008) | inactive: 0.0818 |
| SPTAN1 C1622 (UniProt Q13813) | inactive: 0.239 |
| SQSTM1 C290 (UniProt Q13501) | inactive: 0.524 |
| CKAP5 C1911 (UniProt Q14008) | inactive: 0.132 |
| BLMH C73 (UniProt Q13867) | inactive: 0.184 |
| FLNC C1735 (UniProt Q14315) | inactive: -0.0456 |
| CASP8 C360 (UniProt Q14790) | inactive: 0.195 |
